PubChem BioAssay AID1224830, NIAID – 2016

Test: 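Genes whose knock-down alters the TNF-alpha reporter response to LPS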 (primary screen)
Cells: human THP-1 monocytic leukaemia cells, TNF dual-luciferase reporter clone, PMA-differentiated to macrophage-like cells
Reagent: siRNA pool against human genes, 50 nM
Timing: LPS for 4 h, given about 3 days after siRNA transfection
Treatment: bacterial LPS (TLR4 ligand), 10 ng/ml
Detection: 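Ratio of firefly to renilla light, scaled to the plate median and expressed as a robust z-score per replicate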
Scale: TNF reporter robust z-score: higher = stronger TNF reporter response to LPS
Rule for the call: 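Each well counts as active if its z-score is over 2.8 or under -1.5; controls are left without a call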
The deposit covers about 18,000 reagents; this is an unselected part. About 2,900 of all reagents (16%) were called active. 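Calls are made per well; low scores hint the gene aids the LPS response, high scores that it dampens it.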 Repeated entries: four replicate wells of each siRNA pool. No sequences are given here.

Gene,TNF reporter robust z-score,Outcome
IRX2 (iroquois homeobox 2),-0.36,inactive
IRX2 (iroquois homeobox 2),-0.94,inactive
IRX2 (iroquois homeobox 2),-1.27,inactive
IRX2 (iroquois homeobox 2),0.41,inactive
ADORA3 (adenosine A3 receptor),-2.04,active
ADORA3 (adenosine A3 receptor),-1.65,active
ADORA3 (adenosine A3 receptor),-1.31,inactive
ADORA3 (adenosine A3 receptor),-1.41,inactive
THAP8 (THAP domain containing 8),1.74,inactive
THAP8 (THAP domain containing 8),3.1,active
THAP8 (THAP domain containing 8),2.21,inactive
THAP8 (THAP domain containing 8),2.29,inactive
C1orf105 (chromosome 1 open reading frame 105),-0.42,inactive
C1orf105 (chromosome 1 open reading frame 105),1.66,inactive
C1orf105 (chromosome 1 open reading frame 105),3.26,active
C1orf105 (chromosome 1 open reading frame 105),-0.78,inactive
NAIP (NLR family apoptosis inhibitory protein),-0.26,inactive
NAIP (NLR family apoptosis inhibitory protein),1.67,inactive
NAIP (NLR family apoptosis inhibitory protein),-0.38,inactive
NAIP (NLR family apoptosis inhibitory protein),0.87,inactive
PURG (purine rich element binding protein G),1.05,inactive
PURG (purine rich element binding protein G),1.36,inactive
PURG (purine rich element binding protein G),1.53,inactive
PURG (purine rich element binding protein G),1.02,inactive
EIF2B5 (eukaryotic translation initiation factor 2B subunit epsilon),-0.54,inactive
EIF2B5 (eukaryotic translation initiation factor 2B subunit epsilon),-0.62,inactive
EIF2B5 (eukaryotic translation initiation factor 2B subunit epsilon),-0.03,inactive
EIF2B5 (eukaryotic translation initiation factor 2B subunit epsilon),0.42,inactive
TINF2 (TERF1 interacting nuclear factor 2),-0.57,inactive
TINF2 (TERF1 interacting nuclear factor 2),-0.36,inactive
TINF2 (TERF1 interacting nuclear factor 2),0.58,inactive
TINF2 (TERF1 interacting nuclear factor 2),-0.17,inactive
NDUFB11 (NADH:ubiquinone oxidoreductase subunit B11),0.99,inactive
NDUFB11 (NADH:ubiquinone oxidoreductase subunit B11),0.09,inactive
NDUFB11 (NADH:ubiquinone oxidoreductase subunit B11),-0.38,inactive
NDUFB11 (NADH:ubiquinone oxidoreductase subunit B11),0.08,inactive
DAZ2 (deleted in azoospermia 2),0.13,inactive
DAZ2 (deleted in azoospermia 2),0.32,inactive
DAZ2 (deleted in azoospermia 2),0.97,inactive
DAZ2 (deleted in azoospermia 2),-0.14,inactive
DHX37 (DEAH-box helicase 37),0.16,inactive
DHX37 (DEAH-box helicase 37),1.07,inactive
DHX37 (DEAH-box helicase 37),1.3,inactive
DHX37 (DEAH-box helicase 37),1.59,inactive
SLITRK5 (SLIT and NTRK like family member 5),0.26,inactive
SLITRK5 (SLIT and NTRK like family member 5),0.25,inactive
SLITRK5 (SLIT and NTRK like family member 5),-0.14,inactive
SLITRK5 (SLIT and NTRK like family member 5),0.21,inactive
FGF22 (fibroblast growth factor 22),23.4,active
FGF22 (fibroblast growth factor 22),0.64,inactive
FGF22 (fibroblast growth factor 22),-0.1,inactive
FGF22 (fibroblast growth factor 22),0.62,inactive
CD7 (CD7 molecule),-0.34,inactive
CD7 (CD7 molecule),-0.15,inactive
CD7 (CD7 molecule),-0.25,inactive
CD7 (CD7 molecule),0.47,inactive
LEAP2 (liver enriched antimicrobial peptide 2),-0.26,inactive
LEAP2 (liver enriched antimicrobial peptide 2),-0.64,inactive
LEAP2 (liver enriched antimicrobial peptide 2),-0.87,inactive
LEAP2 (liver enriched antimicrobial peptide 2),0.17,inactive
OR5M8 (olfactory receptor family 5 subfamily M member 8),-0.39,inactive
OR5M8 (olfactory receptor family 5 subfamily M member 8),0.32,inactive
OR5M8 (olfactory receptor family 5 subfamily M member 8),-0.04,inactive
OR5M8 (olfactory receptor family 5 subfamily M member 8),0.96,inactive
OPCML (opioid binding protein/cell adhesion molecule like),0.75,inactive
OPCML (opioid binding protein/cell adhesion molecule like),-0.1,inactive
OPCML (opioid binding protein/cell adhesion molecule like),-0.21,inactive
OPCML (opioid binding protein/cell adhesion molecule like),-0.7,inactive
OR51A4 (olfactory receptor family 51 subfamily A member 4),-0.28,inactive
OR51A4 (olfactory receptor family 51 subfamily A member 4),-0.19,inactive
OR51A4 (olfactory receptor family 51 subfamily A member 4),-1.55,active
OR51A4 (olfactory receptor family 51 subfamily A member 4),-0.18,inactive
CCDC183 (coiled-coil domain containing 183),1.34,inactive
CCDC183 (coiled-coil domain containing 183),-0.8,inactive
CCDC183 (coiled-coil domain containing 183),-1.49,inactive
CCDC183 (coiled-coil domain containing 183),-0.62,inactive
CD200R1L (CD200 receptor 1 like),-0.52,inactive
CD200R1L (CD200 receptor 1 like),0.41,inactive
CD200R1L (CD200 receptor 1 like),-0.05,inactive
CD200R1L (CD200 receptor 1 like),-0.19,inactive
TFCP2L1 (transcription factor CP2 like 1),0.67,inactive
TFCP2L1 (transcription factor CP2 like 1),1.33,inactive
TFCP2L1 (transcription factor CP2 like 1),2.69,inactive
TFCP2L1 (transcription factor CP2 like 1),1.46,inactive
NOMO2 (NODAL modulator 2),-0.72,inactive
NOMO2 (NODAL modulator 2),-0.67,inactive
NOMO2 (NODAL modulator 2),-0.9,inactive
NOMO2 (NODAL modulator 2),-0.83,inactive
"PSMD3 (proteasome 26S subunit, non-ATPase 3)",-1.27,inactive
"PSMD3 (proteasome 26S subunit, non-ATPase 3)",-1.47,inactive
"PSMD3 (proteasome 26S subunit, non-ATPase 3)",-1.53,active
"PSMD3 (proteasome 26S subunit, non-ATPase 3)",-1.32,inactive
NOTCH4 (notch receptor 4),-0.85,inactive
NOTCH4 (notch receptor 4),-0.87,inactive
NOTCH4 (notch receptor 4),-1.23,inactive
NOTCH4 (notch receptor 4),0.09,inactive
PTRH1 (peptidyl-tRNA hydrolase 1 homolog),-0.83,inactive
PTRH1 (peptidyl-tRNA hydrolase 1 homolog),-0.33,inactive
PTRH1 (peptidyl-tRNA hydrolase 1 homolog),-0.5,inactive
PTRH1 (peptidyl-tRNA hydrolase 1 homolog),0.56,inactive
TDRD3 (tudor domain containing 3),-0.4,inactive
TDRD3 (tudor domain containing 3),-0.05,inactive
TDRD3 (tudor domain containing 3),-0.15,inactive
TDRD3 (tudor domain containing 3),-1.34,inactive
NSDHL (NAD(P) dependent 3-beta-hydroxysteroid dehydrogenase NSDHL),0.41,inactive
NSDHL (NAD(P) dependent 3-beta-hydroxysteroid dehydrogenase NSDHL),0.91,inactive
NSDHL (NAD(P) dependent 3-beta-hydroxysteroid dehydrogenase NSDHL),0.79,inactive
THOC7 (THO complex subunit 7),-1.2,inactive
THOC7 (THO complex subunit 7),-1.09,inactive
THOC7 (THO complex subunit 7),-0.57,inactive
THOC7 (THO complex subunit 7),-0.11,inactive

Part of the list above, reformatted:
Gene	TNF reporter robust z-score	Outcome
CCDC183 (coiled-coil domain containing 183)	-1.49	inactive
CCDC183 (coiled-coil domain containing 183)	-0.62	inactive
CD200R1L (CD200 receptor 1 like)	-0.52	inactive
CD200R1L (CD200 receptor 1 like)	0.41	inactive
CD200R1L (CD200 receptor 1 like)	-0.05	inactive
CD200R1L (CD200 receptor 1 like)	-0.19	inactive
TFCP2L1 (transcription factor CP2 like 1)	0.67	inactive
TFCP2L1 (transcription factor CP2 like 1)	1.33	inactive
TFCP2L1 (transcription factor CP2 like 1)	2.69	inactive
TFCP2L1 (transcription factor CP2 like 1)	1.46	inactive
NOMO2 (NODAL modulator 2)	-0.72	inactive
NOMO2 (NODAL modulator 2)	-0.67	inactive
NOMO2 (NODAL modulator 2)	-0.9	inactive
NOMO2 (NODAL modulator 2)	-0.83	inactive
PSMD3 (proteasome 26S subunit, non-ATPase 3)	-1.27	inactive
PSMD3 (proteasome 26S subunit, non-ATPase 3)	-1.47	inactive
